The list does not hold the whole screen: it is rich in T/C values a quarter to a half above the control, in often repeated tests (any T/C) and in doses without a T/C. Other doses and runs of a compound stand elsewhere. T/C is the treated group as % of the vehicle group. Some entries give survivors of the animals treated and no T/C: the source files T/C as zero there, which appears to mark a toxic dose or a test without result, not a measured value. Some survivor counts are full or nearly so, which does not show that the dose was tolerated: survival well below the control is almost never listed, so the zero probably covers shortened survival too. Survivors were counted at the toxicity check, usually on the fifth day, unless a day is given; later deaths do not show. Schedules are NCI's codes, read here as Q, the interval in days (D) or hours (H), X, the number of doses. Some entries hold several experiments; the values are given in rising order. For survival time, this PubChem deposit counts one and a half times the control or more as active, and values a quarter to a half above the control carry no call in these data; other NCI protocols may use other cut-offs. Some T/C values are followed by the survivors on the day toxicity was checked, most often the fifth; without a count, all were alive then. Counts like (3×) stand for listed records that agree.
System: P388 leukemia ip, CD2F1 mice, survival T/C
Experiment: NCI In Vivo Anticancer Drug Screen. Data for tumor model P388 Leukemia (intraperitoneal) in CD2F1 (CDF1) mice
Conditions: T/C endpoint: median survival time, higher T/C = longer survival
[1] = dose: 0.6 mg/kg/injection, schedule: Q04DX003 (ip), vehicle: saline + alcohol
[2] = dose: 100.0 micrograms/kg/injection, schedule: Q01DX005 (ip), vehicle: saline + alcohol
[3] = dose: 200.0 micrograms/kg/injection, schedule: Q01DX005 (ip), vehicle: saline + alcohol
[4] = dose: 200.0 micrograms/kg/injection, schedule: Q01DX005 (ip), vehicle: water
[5] = dose: 400.0 micrograms/kg/injection, schedule: Q01DX005 (ip), vehicle: saline + alcohol
[6] = dose: 400.0 micrograms/kg/injection, schedule: Q01DX005 (ip), vehicle: water
[7] = dose: 50.0 mg/kg/injection, schedule: Q01DX005 (ip), vehicle: Klucel (hydroxypropylcellulose) (HPC)
[8] = dose: 100.0 mg/kg/injection, schedule: Q01DX005 (ip), vehicle: Klucel (hydroxypropylcellulose) (HPC)
[9] = dose: 200.0 mg/kg/injection, schedule: Q01DX005 (ip), vehicle: Klucel (hydroxypropylcellulose) (HPC)
[10] = dose: 400.0 mg/kg/injection, schedule: Q01DX005 (ip), vehicle: Klucel (hydroxypropylcellulose) (HPC)
[11] = dose: 200.0 mg/kg/injection, schedule: Q01DX005 (ip), vehicle: saline with Tween-80

O=C(Oc1ccc[nH]c1=O)c1ccccc1
survivor count (dose: 150.0 mg/kg/injection, schedule: Q01DX009 (ip), vehicle: saline): 4 of 6

CO[C@H]1Nc2c(ccc(C)c2O)C(=O)N2C=C(/C=C/C(N)=O)C[C@@H]12
T/C (dose: 0.08 mg/kg/injection, schedule: Q04DX003 (ip), vehicle: saline + alcohol): 126 % of control [7 of 8 alive] | T/C (dose: 0.1 mg/kg/injection, schedule: Q04DX003 (ip), vehicle: saline): 128 % of control | T/C (dose: 0.13 mg/kg/injection, schedule: Q04DX003 (ip), vehicle: saline + alcohol): 132 % of control | survivor count (dose: 0.25 mg/kg/injection, schedule: Q01DX009 (ip), vehicle: saline with Tween-80): 5 of 6 | T/C (dose: 0.4 mg/kg/injection, schedule: Q04DX003 (ip), vehicle: DMSO): 132 % of control | survivor count (dose: 0.5 mg/kg/injection, schedule: Q01DX009 (ip), vehicle: saline with Tween-80): 5 of 6 | T/C [1]: 146 % of control [7 of 8 alive] | survivor count [1]: 2 of 8 | survivor count (dose: 0.8 mg/kg/injection, schedule: Q04DX003 (ip), vehicle: DMSO): 5 of 6 | survivor count (dose: 1.0 mg/kg/injection, schedule: Q01DX009 (ip), vehicle: saline with Tween-80): 1 of 6 | survivor count (dose: 1.0 mg/kg/injection, schedule: Q04DX003 (ip), vehicle: saline + alcohol): 0 of 8 and 5 of 8 | T/C (dose: 25.0 micrograms/kg/injection, schedule: Q01DX005 (ip), vehicle: saline + alcohol): 113, 115, 123 % of control (2×) | T/C (dose: 25.0 micrograms/kg/injection, schedule: Q01DX005 (ip), vehicle: water): 117, 129, 130, 133, 134, 138 % of control | T/C (dose: 25.0 micrograms/kg/injection, schedule: Q01DX009 (ip), vehicle: saline): 127 % of control [5 of 6 alive] | T/C (dose: 25.0 micrograms/kg/injection, schedule: Q04DX003 (ip), vehicle: saline with Tween-80): 129 % of control | T/C (dose: 50.0 micrograms/kg/injection, schedule: Q01DX005 (ip), vehicle: saline + alcohol): 120, 121 [5 of 6 alive], 122 (2×), 130, 140, 188 % of control | T/C (dose: 50.0 micrograms/kg/injection, schedule: Q01DX005 (ip), vehicle: water): 121, 129, 133, 134, 137, 138 % of control | T/C (dose: 50.0 micrograms/kg/injection, schedule: Q01DX009 (ip), vehicle: saline): 136 % of control | T/C (dose: 50.0 micrograms/kg/injection, schedule: Q04DX003 (ip), vehicle: saline with Tween-80): 126 % of control | T/C [2]: 117, 122, 130, 133, 142, 160 % of control | survivor count [2]: 3 of 6 | T/C (dose: 100.0 micrograms/kg/injection, schedule: Q01DX005 (ip), vehicle: water): 131, 132, 140, 142, 148, 153 % of control [4 of 5 alive] | T/C (dose: 100.0 micrograms/kg/injection, schedule: Q01DX009 (ip), vehicle: saline): 140 % of control | T/C (dose: 100.0 micrograms/kg/injection, schedule: Q04DX003 (ip), vehicle: saline with Tween-80): 129 % of control | T/C [3]: 132, 144, 150, 153, 157 [5 of 6 alive], 207 % of control [4 of 6 alive] | survivor count [3]: 1 of 6 | T/C [4]: 135, 138 [5 of 6 alive], 141 [4 of 5 alive], 147, 163 % of control | survivor count [4]: 5 of 5 | T/C [5]: 103, 165 [4 of 5 alive], 177 % of control | survivor count [5]: 0 of 6, 1 of 6, 5 of 6, 6 of 6 | T/C [6]: 151, 165, 175 % of control [5 of 6 alive] | survivor count [6]: 2 of 5 and 6 of 6 | survivor count (dose: 800.0 micrograms/kg/injection, schedule: Q01DX005 (ip), vehicle: saline + alcohol): 3 of 6

Cc1[nH]c(=O)[nH]c(=O)c1/C=C/C(=O)NC(CO)CS(=O)CS(C)=O (centres undefined)
T/C (dose: 3.3 mg/kg/injection, schedule: Q01DX009 (ip), vehicle: water): 132 % of control | T/C (dose: 4.8 mg/kg/injection, schedule: Q01DX009 (ip), vehicle: water): 135 % of control | T/C (dose: 5.0 mg/kg/injection, schedule: Q01DX009 (ip), vehicle: water): 137 % of control | T/C (dose: 7.5 mg/kg/injection, schedule: Q01DX009 (ip), vehicle: water): 136 % of control | T/C (dose: 9.6 mg/kg/injection, schedule: Q01DX009 (ip), vehicle: water): 128 % of control [4 of 6 alive] | T/C (dose: 11.3 mg/kg/injection, schedule: Q01DX009 (ip), vehicle: water): 144 % of control | survivor count (dose: 19.2 mg/kg/injection, schedule: Q01DX009 (ip), vehicle: water): 1 of 6

C=CCOc1cc2c(cc1C(C)c1ccc(OC)cc1)OCO2 (centres undefined)
T/C [7]: 108, 113 (2×), 117 % of control | T/C (dose: 50.0 mg/kg/injection, schedule: Q01DX005 (ip), vehicle: Klucel + Tween-80): 125 % of control | T/C [8]: 117, 120, 122, 137 % of control | T/C (dose: 100.0 mg/kg/injection, schedule: Q01DX005 (ip), vehicle: Klucel + Tween-80): 136 % of control | T/C [9]: 120, 138, 141, 188 % of control | T/C [10]: 139 % of control | survivor count [10]: 4 of 6 and 4 of 5 | survivor count (dose: 400.0 mg/kg/injection, schedule: Q01DX005 (ip), vehicle: Klucel + Tween-80): 6 of 6 | T/C (dose: 400.0 mg/kg/injection, schedule: Q01DX005 (ip), vehicle: saline with Tween-80): 127 and 128 % of control | survivor count (dose: 800.0 mg/kg/injection, schedule: Q01DX005 (ip), vehicle: Klucel + Tween-80): 1 of 6 | survivor count (dose: 2000.0 mg/kg/injection, schedule: Q01DX001 (ip), vehicle: saline with Tween-80): 5 of 6

O=C(Nc1ncnc2nc[nH]c12)NC1CCCCC1
survivor count (dose: 100.0 mg/kg/injection, schedule: Q01DX005 (ip), vehicle: saline with Tween-80): 0 of 5 | survivor count [11]: 0 of 5

CCOC(=O)CCC(NC(=O)c1ccc(NCc2cnc3nc(N)nc(N)c3c2)cc1)C(=O)OCC (centres undefined)
survivor count (dose: 2.0 mg/kg/injection, schedule: Q01DX005 (ip), vehicle: saline with Tween-80): 5 of 5 and 6 of 6 | survivor count (dose: 4.0 mg/kg/injection, schedule: Q01DX005 (ip), vehicle: saline with Tween-80): 5 of 5 | survivor count (dose: 8.0 mg/kg/injection, schedule: Q01DX005 (ip), vehicle: saline with Tween-80): 5 of 5 | survivor count (dose: 16.0 mg/kg/injection, schedule: Q01DX005 (ip), vehicle: saline with Tween-80): 5 of 5 | T/C (dose: 250.0 micrograms/kg/injection, schedule: Q01DX005 (ip), vehicle: saline with Tween-80): 127 % of control | T/C (dose: 500.0 micrograms/kg/injection, schedule: Q01DX005 (ip), vehicle: saline with Tween-80): 139 % of control | survivor count (dose: 2000.0 micrograms/kg/injection, schedule: Q01DX005 (ip), vehicle: saline with Tween-80): 10 of 10

CC(C)NCCCNCC(=O)Nc1ccc(S(=O)(=O)c2ccc(NC(=O)CNCCCNC(C)C)cc2)cc1
survivor count [7]: 3 of 5 | survivor count [8]: 0 of 5 | survivor count [9]: 0 of 5

CCN(CC)CCNC1CC2CCC1(C)C2(C)C (centres undefined)
survivor count [11]: 0 of 6

OCc1ccn2c1C(O)CC2 (centres undefined)
T/C (dose: 25.0 mg/kg/injection, schedule: Q01DX009 (ip), vehicle: saline): 125 % of control

COc1cccc2c1C(=O)c1c(O)c3c(c(O)c1C2=O)CC(O)(C(=O)CO)CC3OC1CC(N(Cc2ccccc2)Cc2ccccc2)C(O)C(C)O1 (centres undefined)
T/C (dose: 0.39 mg/kg/injection, schedule: Q01DX009 (ip), vehicle: water): 127 % of control | T/C (dose: 0.78 mg/kg/injection, schedule: Q01DX009 (ip), vehicle: water): 134 % of control

Cc1cc(C2=CSC3=NCCN23)ccc1Cl
survivor count [11]: 0 of 5

Source: PubChem BioAssay AID330 (DTP/NCI, 2004)
